Article PMC8639466

Protein sequences, listed by entry. Tags and fused reporters are not part of them. Residues count along the entry.
UniProt Q08945, 546-616: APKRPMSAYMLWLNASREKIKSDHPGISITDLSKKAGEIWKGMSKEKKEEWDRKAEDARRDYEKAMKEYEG
UniProt Q08945, 520-616: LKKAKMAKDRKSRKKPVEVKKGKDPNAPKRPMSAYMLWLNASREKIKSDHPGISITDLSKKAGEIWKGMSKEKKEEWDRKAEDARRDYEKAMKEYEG

Key:
NHP6A1-93 = target: T1, NHP6A1-93 (UniProt P11632); test: EMSA; details: positive control; EMSA: 5 uM DNA, 137 mM NaCl, 2.7 mM KCl, 10 mM Na2HPO4, 2 mM KH2PO4 pH 7.4, 30 min on ice, 12% native PAGE; recombinant protein; residues …; protein details: pET28a; label: 5'-FAM on strand 1
T1 sequence (looked up): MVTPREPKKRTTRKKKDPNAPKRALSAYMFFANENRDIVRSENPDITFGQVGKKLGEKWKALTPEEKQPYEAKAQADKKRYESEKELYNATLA

NHP6A26-93 = target: T2, NHP6A26-93 (UniProt P11632); test: EMSA; details: N-terminal deletion affects binding; EMSA: 5 uM DNA, 137 mM NaCl, 2.7 mM KCl, 10 mM Na2HPO4, 2 mM KH2PO4 pH 7.4, 30 min on ice, 12% native PAGE; recombinant protein; residues 26-93; protein details: pET28a; label: 5'-FAM on strand 1
T2 sequence (looked up): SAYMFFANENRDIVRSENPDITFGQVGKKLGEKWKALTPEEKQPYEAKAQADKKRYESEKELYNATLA

[1] = target: hSSRP1-HMG546-616 (Homo sapiens) (UniProt Q08945); test: SEC; details: dsDNA sequence not restated for SEC; single-molecule: 10 mM Tris, 20 mM EDTA, 25 mM KCl, 0.2 mg/l BSA, 10 mM MgCl2; recombinant protein; residues 546-616; protein details: GST or His-SUMO fusion vector, GST cleaved; label: 5'-FAM on strand 1
[2] = target: hSSRP1-HMG520-616 (Homo sapiens) (UniProt Q08945); test: SEC; details: dsDNA sequence not restated for SEC; single-molecule: 10 mM Tris, 20 mM EDTA, 25 mM KCl, 0.2 mg/l BSA, 10 mM MgCl2; recombinant protein; residues 520-616; protein details: GST or His-SUMO fusion vector, GST cleaved; label: 5'-FAM on strand 1

“GGGGTGATTGTTCAG (double strand) [15 bp FAM GT-rich dsDNA]”: binds (NHP6A1-93); binds more weakly (NHP6A26-93); no binding [1]. “GGGGTGATTGTTCAG (double strand) [15 bp FAM GT-rich dsDNA]”: binds [2].

For some of these results: A negative result means that nothing was seen under these conditions. At least one verdict rests on a figure or table, not on a statement of the authors. For some of these results: For at least one entry, the source does not settle the construct or the ends of the probe. For some of these results: Weaker means in comparison with the reference protein, sequence or condition of that experiment. For some of these results: Protein sequences can lack the tags named with them.
